In patent US20200392228A1 one finds binding data, which are given here for 21 molecules.

B1: MAdCAM antibody Clone ID 43 of Table 6 (scFv) (scFv)
scFv: EVQLLESGGGLVQPGGSLRLSCAASGFTFDDFAMHWVRQAPGKGLEWVSGISGNGDSRYYADSVKGRFTISRDNSKNTLYLQMNSLRAEDTAVYYCARDASYGGNYGMDVWGQGTTVTVSSGGGGSGGGGSGGGGSGGGGSDIQMTQSPSSLSASVGDRVTITCQASQDIRNYLNWYQQKPGKAPKLLIYKASTLESGVPSRFSGSGSGTDFTLTISSLQPEDFATYYCQQANSFPLTFGPGTKVDIK
B2: MAdCAM antibody Clone ID 40 of Table 6 (scFv) (scFv)
scFv: QVQLVQSGAEVKKPGASVKVSCKASGYTFTSYGISWVRQAPGQGLEWMGIINPRGGSTIFAQKFQGRVTMTRDTSTSTVYMELSSLRSEDTAVYYCARGTRSSGWYGWFDPWGQGTLVTVSSGGGGSGGGGSGGGGSGGGGSDIQMTQSPSSLSASVGDRVTITCRASQGIGNWLAWYQQKPGKAPKLLIYAASNLETGVPSRFSGSGSGTDFTLTISSLQPEDFATYYCQQIHSYPLTFGGGTKVEIK
B3: MAdCAM antibody Clone ID 39 of Table 6 (scFv) (scFv)
scFv: QVQLVQSGAEVKKPGASVKVSCKASGYTFTSYYMHWVRQAPGQGLEWMGWMNPNSGNTGYAQKFQGRVTMTRDTSTSTVYMELSSLRSEDTAVYYCARDLGYYDSSGYFGAFDIWGQGTTVTVSSGGGGSGGGGSGGGGSGGGGSDIQMTQSPSSLSASVGDRVTITCQSSEDISSSLNWYQQKPGKAPKLLIYAASSLQIGVPSRFSGSGSGTDFTLTISSLQPEDFATYYCQQTYSTPYTFGQGTKVEIK
B4: MAdCAM antibody Clone ID 58 of Table 6 (scFv) (scFv)
scFv: QVQLVQSGAEVKKPGASVKVSCKASGYTFTGYYMHWVRQAPGQGLEWMGIINPSGGNTKYAQKFQGRVTMTRDTSTSTVYMELSSLRSEDTAVYYCTTADYYYYMDVWGKGTTVTVSSGGGGSGGGGSGGGGSGGGGSDIQMTQSPSSLSASVGDRVTITCRASQGISNYLAWYQQKPGKAPKLLIYAASSLQSGVPSRFSGSGSGTDFTLTISSLQPEDFATYYCQQYYSNADFGQGTKVEIK
B5: MAdCAM antibody Clone ID 49 of Table 6 (scFv) (scFv)
scFv: QVQLVQSGAEVKKPGASVKVSCKASGDTFTGYYIHWVRQAPGQGLEWMGWINPNSGGTNYAQKFQGRVTMTRDTSTSTVYMELSSLRSEDTAVYYCARSGLWLGSYYGMDVWGQGTLVTVSSGGGGSGGGGSGGGGSGGGGSDIQMTQSPSSLSASVGDRVTITCRASQTISIWLAWYQQKPGKAPKLLIYDASTLQSGVPSRFSGSGSGTDFTLTISSLQPEDFATYYCQQYSSYPLTFGQGTKVEIK
B6: MAdCAM antibody Clone ID 44 of Table 6 (scFv) (scFv)
scFv: EVQLVESGGGLVKPGGSLRLSCAASGFTFSSYWMSWVRQAPGKGLEWVSAIGTGGGTYYAAPVKGRFTISRDDSKNTLYLQMNSLKTEDTAVYYCAREWLVPYYGMDVWGQGTTVTVSSGGGGSGGGGSGGGGSGGGGSDIQMTQSPSSLSASVGDRVTITCRASQSISRWLAWYQQKPGKAPKLLIYGASNLQSGVPSRFSGSGSGTDFTLTISSLQPEDFATYYCQQSYSTPWTFGQGTKVEIK
B7: MAdCAM antibody Clone ID 2 of Table 7 (IgG) (antibody, V domains shown)
VH: QVQLVQSGAEVKKPGASVKVSCKASGYPFIGYYLHWVRQAPGQGLEWMGIINPSGGSTSYAQKFQGRVTMTRDTSTSTVYMELSSLRSEDTAVYYCAREGRLSYGMDAWGQGTLVTVSS
VL: DIQMTQSPSSLSASVGDRVTITCRASQSISSYLAWYQQKPGKAPKLLIYGASTLESGVPSRFSGSGSGTDFTLTISSLQPEDFATYYCQQTWGPPFTFGQGTKLEIK
B8: MAdCAM antibody Clone ID 34 of Table 7 (IgG) (antibody, V domains shown)
VH: QVQLVQSGAEVKKPGASVKVSCKASGYTFTGYYIHWVRQAPGQGLEWMGWMNPNSGNTGYAQKFQGRVTMTRDTSTSTVYMELSSLRSEDTAVYYCARDPGFLGYCSGGSCYDGWFDPWGQGTLVTVSS
VL: B7 VL with A34H, G50A, T53S, E55Q, T91S, W92Y, G93T, P94A, F96Y
B9: MAdCAM antibody Clone ID 3 of Table 7 (IgG) (antibody, V domains shown)
VH: B7 VH with Y32Q
VL: B7 VL
B10: MAdCAM antibody Clone ID 48 of Table 6 (scFv) (scFv)
scFv: EVQLLESGGGLVQPGGSLRLSCAASGFTFSDHGMHWVRQAPGKGLEWVSVIYGGESTYYADSVKGRFTISRDNSKNTLYLQMNSLRAEDTAVYYCARDPAVAGGGIFDYWGQGTLVTVSSGGGGSGGGGSGGGGSGGGGSDIQMTQSPSSLSASVGDRVTITCRASQGISNYLAWYQQKPGKAPKLLIYDASNLETGVPSRFSGSGSGTDFTLTISSLQPEDFATYYCQQSYSTCYTFGQGTKLEIK
B11: MAdCAM antibody Clone ID 56 of Table 6 (scFv) (scFv)
scFv: EVQLLESGGGLVQPGGSLRLSCAASGFTFDDYAMHWVRQAPGKGLEWVSAISGGGEDTYYADSVKGRFTISRDNSKNTLYLQMNSLRAEDTAVYYCARDASYGGNYGMDVWGQGTTVTVSSGGGGSGGGGSGGGGSGGGGSDIQMTQSPSSLSASVGDRVTITCQASQDIRNYLNWYQQKPGKAPKLLIYKASSLESGVPSRFSGSGSGTDFTLTISSLQPEDFATYYCQQANSYPVTFGGGTKVEIK
B12: MAdCAM antibody Clone ID 3 of Table 6 (scFv) (scFv)
scFv: QVQLVQSGAEVKKPGASVKVSCKASGYPFIGQYLHWVRQAPGQGLEWMGIINPSGGSTSYAQKFQGRVTMTRDTSTSTVYMELSSLRSEDTAVYYCAREGRLSYGMDAWGQGTLVTVSSGGGGSGGGGSGGGGSGGGGSDIQMTQSPSSLSASVGDRVTITCRASQSISSYLAWYQQKPGKAPKLLIYGASTLESGVPSRFSGSGSGTDFTLTISSLQPEDFATYYCQQTWGPPFTFGQGTKLEIK
B13: MAdCAM antibody Clone ID 12 of Table 7 (IgG) (antibody, V domains shown)
VH: QVQLVQSGAEVKKPGASVKVSCKASGYTLTTWYMYWVRQAPGQGLEWMGWINPNRGATNYAQKFQGRVTMTRDTSTSTVYMELSSLRSEDTAVYYCAKGDLWGAMDVWGQGTLVTVSS
VL: DIQMTQSPSSLSASVGDRVTITCRASDNIGSWLAWYQQKPGKAPKLLIYAASSLQSGVPSRFSGSGSGTDFTLTISSLQPEDFATYYCQQGYSTPPTFGQGTKVEIK
B14: MAdCAM antibody Clone ID 52 of Table 6 (scFv) (scFv)
scFv: EVQLLESGGGLVQPGGSLRLSCAASGFTFSNSDMNWVRQAPGKGLEWVAHIWNDGSQKYYADSVKGRFTISRDNSKNTLYLQMNSLRAEDTAVYYCARDRTDPGYSSAMDVWGQGTTVTVSSGGGGSGGGGSGGGGSGGGGSDIQMTQSPSSLSASVGDRVTITCRASQDIRNYLGWYQQKPGKAPKLLIYDASSLETGVPSRFSGSGSGTDFTLTISSLQPEDFATYYCQQATSLPLTFGGGTKVEIK
B15: MAdCAM antibody Clone ID 55 of Table 6 (scFv) (scFv)
scFv: QVQLVQSGAEVKKPGASVKVSCKASGYTFTSYYMHWVRQAPGQGLEWMGIIDPSGGSTSYAQKFQGRVTMTRDTSTSTVYMELSSLRSEDTAVYYCAREEWSSGGVGYFDYWGQGTLVTVSSGGGGSGGGGSGGGGSGGGGSDIQMTQSPSSLSASVGDRVTITCRASQGISSYLAWYQQKPGKAPKLLIYATSSLQTGVPSRFSGSGSGTDFTLTISSLQPEDFATYYCQQTYSIPITFGQGTRLEIK
B16: MAdCAM antibody Clone ID 42 of Table 6 (scFv) (scFv)
scFv: QVQLVQSGAEVKKPGSSVKVSCKASGGTLSRYGVSWVRQAPGQGLEWMGGIIPIFGTTNYAQKFQGRVTITADESTSTAYMELSSLRSEDTAVYYCARDRVYYDSSGYPTWYFDLWGRGTLVTVSSGGGGSGGGGSGGGGSGGGGSEIVMTQSPATLSVSPGERATLSCRASQSVSSSYLAWYQQKPGQAPRLLIYGASTRATGIPARFSGSGSGTEFTLTISSLQSEDFAVYYCQQYGSSPITFGQGTKVEIK
B17: MAdCAM antibody Clone ID 51 of Table 6 (scFv) (scFv)
scFv: EVQLLESGGGLVQPGGSLRLSCAASGFTFNNYGMNWVRQAPGKGLEWVSRINSDGSSTSYADSVKGRFTISRDNSKNTLYLQMNSLRAEDTAVYYCARGAYYYYYMDVWGQGTLVTVSSGGGGSGGGGSGGGGSGGGGSEIVMTQSPATLSVSPGERATLSCRASQSVSGSYLAWYQQKPGQAPRLLIYATSSRASGIPARFSGSGSGTEFTLTISSLQSEDFAVYYCQQYYSGLTFGQGTKVEIK
B18: MAdCAM antibody Clone ID 54 of Table 6 (scFv) (scFv)
scFv: EVQLLESGGGLVQPGGSLRLSCAASGFTFGDYAMSWVRQAPGKGLEWVAVVSYDGTNKYYADSVKGRFTISRDNSKNTLYLQMNSLRAEDTAVYYCAKDICSSTSCYFDLWGRGTLVTVSSGGGGSGGGGSGGGGSGGGGSDIQMTQSPSSLSASVGDRVTITCRASQNINNYVNWYQQKPGKAPKLLIYDASNLETGVPSRFSGSGSGTDFTLTISSLQPEDFATYYCQQANSFPPTFGQGTRLEIK
B19: MAdCAM antibody Clone ID 50 of Table 6 (scFv) (scFv)
scFv: QVQLVQSGAEVKKPGASVKVSCKASGYTFTSYDINWVRQAPGQGLEWMGWINPNSGTTGYAQKFQGRVTMTRDTSTSTVYMELSSLRSEDTAVYYCARSPYYYYGMDVWGQGTTVTVSSGGGGSGGGGSGGGGSGGGGSDIQMTQSPSSLSASVGDRVTITCRASHFISRWVAWYQQKPGKAPKLLIYAASTLQSGVPSRFSGSGSGTDFTLTISSLQPEDFATYYCQQSYSGISFGPGTKVDIK
B20: MAdCAM antibody Clone ID 53 of Table 6 (scFv) (scFv)
scFv: QVQLVQSGAEVKKPGASVKVSCKASGYTFTSYDINWVRQAPGQGLEWMGWMNPNSGNTGYAQKFQGRVTMTRDTSTSTVYMELSSLRSEDTAVYYCAKDSDYSNLLWDYWGQGTLVTVSSGGGGSGGGGSGGGGSGGGGSDIQMTQSPSSLSASVGDRVTITCRASQDITNDLGWYQQKPGKAPKLLIYQASSLESGVPSRFSGSGSGTDFTLTISSLQPEDFATYYCQQSYTIPLTFGQGTKVEIK
B21: MAdCAM antibody Clone ID 57 of Table 6 (scFv) (scFv)
scFv: QVQLVQSGAEVKKPGASVKVSCKASGYTFTSYYMHWVRQAPGQGLEWMGIINPSGGSTSYAQKFQGRVTMTRDTSTSTVYMELSSLRSEDTAVYYCARDSVAGTGGRYYGMDVWGQGTLVTVSSGGGGSGGGGSGGGGSGGGGSDIQMTQSPSSLSASVGDRVTITCRASQGISNYFAWYQQKPGKAPKLLIYAASSLQGGVPSRFSGSGSGTDFTLTISSLQPEDFATYYCQQSYSLPYTFGQGTKLEIK

Substitutions are numbered along the chain they refer to. Results are given in words; binding and its absence hold for the method and conditions named. A result given as binding can be weak or reduced; the word gives no strength.

The target in this experiment is Cyno MAdCAM protein (cyno). As to the kind of experiment: ELISA.
Consider B1, for which the binding entry is recorded as “binds”.

For the molecule B2, the binding entry is “binds”.

As to B3, the binding entry is “binds”.

Consider B4, for which the binding result was “binds”.

Consider B5, for which the binding result is given as “binds”.

In the case of B6, the binding entry is listed as “binds”.

As to B7, the binding entry is recorded as “binds”.

Take B8: the binding result was “binds”.

In the case of B9, the binding result is recorded as “binds”.

For the molecule B10, the binding result was “binds”.

In the case of B11, the binding result is “binds”.

In the case of B12, the binding result is listed as “binds”.

For the molecule B13, the binding result is reported as “binds”.

Regarding B14, the binding entry is “binds”.

For the molecule B15, the binding result was “binds”.

Turning to B16, the binding result is on record as “binds”.

On to B17, for which the binding entry was “binds”.

As for B18, the binding entry is on record as “binds”.

For B19, the binding result is “binds”.

For the molecule B20, the binding entry is on record as “binds”.

On to B21, for which the binding result is recorded as “binds”.
